Source: patent US20240174758A1 (AstraZeneca / MedImmune, published 2024)
These are yes or no findings as the source states them, for the method shown. Some results given as binding are weak or reduced against the parent protein; the word gives no strength.

T1: cynomolgus CCR9 (cynomolgus, UniProt Q0H741 1-369)
T1 sequence: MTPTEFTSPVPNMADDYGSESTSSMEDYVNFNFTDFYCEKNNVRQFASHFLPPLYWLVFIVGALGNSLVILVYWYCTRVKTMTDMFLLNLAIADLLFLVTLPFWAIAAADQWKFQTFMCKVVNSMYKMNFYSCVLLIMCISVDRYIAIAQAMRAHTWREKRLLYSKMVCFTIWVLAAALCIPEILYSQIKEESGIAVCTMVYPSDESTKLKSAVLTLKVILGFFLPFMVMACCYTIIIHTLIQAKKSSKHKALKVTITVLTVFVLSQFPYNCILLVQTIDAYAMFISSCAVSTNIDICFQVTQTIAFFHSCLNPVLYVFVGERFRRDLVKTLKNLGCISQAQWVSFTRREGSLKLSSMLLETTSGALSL


Tests used:
cynomolgus CCR9 [1] = target: T1, cynomolgus CCR9; assay: binding to cells expressing cynomolgus CCR9 (Cyno CCR9), FL1 counts against Log M, methods of Example 4
cynomolgus CCR9 [2] = target: T1, cynomolgus CCR9; assay: cell binding by the methods of Example 4
cynomolgus CCR9 [3] = target: T1, cynomolgus CCR9; assay: binding to cells expressing cynomolgus CCR9A (Cyno CCR9A), FL1 counts against Log M, methods of Example 4

binding (cynomolgus CCR9 [1])	binding (cynomolgus CCR9 [2])	binding (cynomolgus CCR9 [3])	Binder
binds	binds		Humanised AB1020243 (AB1020243-fgl) (antibody, V domains shown, For LigandTracer it was labelled with DyLight 650 on an engineered cysteine in CH2; also called humanised AB1020243 afuc) VH: QVQLVQSGAEVKKPGASVKVSCKASGYTFTSYWMHWVRQAPGQGLEWIGVIYPGNSDTRYNQKFKGRVTITRDTSASTAYMELSSLRSEDTAVYYCTRDYYSNYVYYYAMDYWGQGTTVTVSS VL: DIVMTQTPLSLPVTPGEPASISCRSSQSLVHSNGNTYLHWYLQKPGQSPQLLIYKVSNRFSGVPDRFSGSGSGTDFTLKISRVEAEDVGVYYCSQSTHVPWTFGQGTKLEIK
	binds	binds	AB243LO0326 (antibody, V domains shown, CDR-optimised humanised antibody, a-fuc huIgG1 (afucosylated in all experiments); For LigandTracer it was labelled with DyLight 650 on an engineered cysteine in CH2; also called CDR-optimised AB1020243) VH: QVQLVQSGAEVKKPGASVKVSCKASGYTFTSYWMHWVRQAPGQGLEWIGVIYPGNSDTRYNQKFKGRVTITRDTSASTAYMELSSLRSEDTAVYYCTRDYYSNYVYYYAMDYWGQGTTVTVSS VL: DIVMTQTPLSLPVTPGEPASISCRSSQSLVHPNRNTYLHWYLQKPGQSPQLLIYKVSNRFSGVPDRFSGSGSGTDFTLKISRVEAEDVGVYYCSQSTHVPWTFGQGTKLEIK
